Experimental findings from publication PMC3590450, “Analysis of substrate specificity and cyclin Y binding of PCTAIRE-1 kinase” (Cellular Signalling, 2012) are described below.

Chains of the proteins cited; added tags and fusions are not shown.
UniProt Q00536, whole entry: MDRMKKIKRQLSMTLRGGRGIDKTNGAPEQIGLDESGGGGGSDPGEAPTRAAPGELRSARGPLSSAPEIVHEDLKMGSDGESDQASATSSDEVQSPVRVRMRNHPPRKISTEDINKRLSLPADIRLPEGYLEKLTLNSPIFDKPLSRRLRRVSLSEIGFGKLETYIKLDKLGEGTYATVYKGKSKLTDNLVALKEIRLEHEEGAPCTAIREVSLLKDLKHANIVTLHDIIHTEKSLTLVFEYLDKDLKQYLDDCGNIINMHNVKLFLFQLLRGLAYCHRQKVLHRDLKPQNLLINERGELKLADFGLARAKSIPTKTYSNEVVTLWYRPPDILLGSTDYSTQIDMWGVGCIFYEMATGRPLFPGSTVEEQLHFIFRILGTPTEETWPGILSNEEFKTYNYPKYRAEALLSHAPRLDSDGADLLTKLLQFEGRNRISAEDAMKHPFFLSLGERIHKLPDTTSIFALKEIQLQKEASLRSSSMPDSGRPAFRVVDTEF

Where “and” joins values, the source holds several entries; their conditions need not be identical. Equal entries are not always repeated. Where two headings read alike, the source gives them in different places. The structures given here were assigned with low confidence; some may be wrong.

For assay [1], the target named is GST–PCTAIRE-1 (Homo sapiens, UniProt Q00536). In words: In vitro phosphotransferase (kinase) assay of purified GST–PCTAIRE-1 on peptide substrates. The conditions noted are these: 1 μg GST–PCTAIRE-1; for PCTAIRE-1 activity against substituted peptide relative to the parental CDK substrate peptide / PCTAIRE-1 activity, fold increase relative to the parental CDK substrate peptide: Fig. 1C, peptide fixed at 250 μM; for PCTAIRE-1 activity against substituted peptide relative to the parental CDK substrate peptide: 'similar results' = as for + 1P → A (abolished), data not shown; for GST-PCTAIRE-1 Vmax / GST-PCTAIRE-1 Km / Km: peptide 0-100 μM, mean ± SEM; for Km: read-out: GST-PCTAIRE-1 Km. The protocol: HEK293 cells were transfected with pEBG6P encoding GST-tagged human PCTAIRE-1 and harvested 36 h later as described above. GST–PCTAIRE-1 was isolated by batch-wise purification using Glutathione-Sepharose 4B. Briefly, lysates were incubated with equilibrated resin for 1 h at 4 °C, washed extensively with lysis buffer and eluted with 20 mM reduced glutathione in 50 mM Tris–HCl pH 8, 0.27 M sucrose, 0.1 mM EGTA and 1 mM DTT. Protein concentration was estimated by densitometry of Coomassie-stained gels using BSA standards. PCTAIRE-1 preparations were snap-frozen in N2(l) and stored at − 80 °C.
(§1) Fig. 1 Determination of PCTAIRE-1 optimal substrate motif. (A) GST–PCTAIRE-1 WT and kinase dead (KD, D304A) were prepared by overexpression in HEK293 and 1 μg assayed in vitro for phosphotransferase activity against 250 μM of the canonical CDK substrate (CDK-tide, PKT*PKKAKKL) or a peptide derived from the putative PCTAIRE-1 substrate, NSF (NSF-tide, FIKICS*PDKMIGRRR) as described in Materials and methods. (B) GST–PCTAIRE-1 WT/KD was prepared as described in (A) and the optimal substrate motif determined by positional scanning peptide library screening (PSPL) as described in Materials and methods. (C) The activity of GST–PCTAIRE-1 (1 μg) and CDK2–cyclin A2 (10 ng) was assayed against a panel of CDK-tide derivatives (concentration fixed at 250 μM) based on the results of the degenerate library screen (modifications are underlined). Results are expressed as mean ± SEM and are representative of 3 independent experiments.
(§2) Purified rPCTAIRE-1, rCDK2–cyclin A2 or immune complexes isolated from cell/tissue lysates were assayed for phosphotransferase activity in a final assay volume of 50 μl containing 50 mM HEPES pH 7.5, 0.1 mM EGTA, 10 mM Mg(OAc)2, 0.1 mM [γ-^32P] ATP (300 CPM pmol^− 1), 1 mM DTT and the indicated concentrations of peptide substrate. Reactions were incubated at 30 °C and terminated by spotting onto P81 paper and immersion in 75 mM H3PO4. P81 filters were washed 3 × 10 min with H3PO4, rinsed with acetone, air-dried and incorporation of [γ-^32P] determined by Cherenkov counting. Results are expressed in U mg^− 1, where 1 U is defined as the incorporation of 1 nmol phosphate.min^− 1.
(§3) Fig. 2 Optimisation of PCTAIRE-1 substrate peptide. The in vitro phosphotransferase activity of 1 μg GST–PCTAIRE-1 (A) and 10 ng CDK2–cyclin A2 (B) was determined using a panel of CDK-tide derivatives (modifications from the parental peptide are underlined). Peptide conc. was varied over the range 0 > 100 μM and substrate saturation curves were fitted by non-linear regression to the Michaelis–Menten model. Fitted parameters [Km (μM) and Vmax (mU mg^− 1)] are listed in the adjoining table. (C) Based on the CDK-tide optimisation, derivatives of NSF-tide were synthesised (modifications underlined) and assayed for PCTAIRE-1 activity as described in (A + B). 100% GST–PCTAIRE-1 = 164 mU mg^− 1 and 100% CDK2–[…] = 940 U mg^− 1. (D) PCTAIRE-1 was immunoprecipitated from 2 mg of HEK293 lysate and kinase activity determined using 250 μM CDK-tide or the optimised substrate, PKS*PKARKKL (PCTAIRE-tide) as described in Materials and methods. Results are expressed as mean ± SEM and are representative of 3 independent experiments. […]

Assay [2] concerns the target CDK2–cyclin A2 (Homo sapiens, UniProt P20248+P24941). In words: In vitro phosphotransferase (kinase) assay of rCDK2–cyclin A2 on peptide substrates. The conditions noted are these: for CDK2–cyclin A2 activity against substituted peptide relative to the parental CDK substrate peptide: 'similar results' = as for + 1P → A (abolished), data not shown; for CDK2-cyclin A2 Vmax: Fig. 2B table; for CDK2-cyclin A2 Vmax / CDK2-cyclin A2 Km / Km: CDK-tide derivatives, peptide 0-100 μM, Michaelis–Menten fit, mean ± SEM; for CDK2-cyclin A2 Km / Km: Fig. 2B, 0.1 mM [γ-32P]ATP, 30 °C, representative of 3 independent experiments; for Km: read-out: CDK2-cyclin A2 Km; for CDK2–cyclin A2 Vmax as stated in text: running text on Fig. 2B, one range stated for TPKKR, SPKKA and TPKKA together. The protocol:
PCTAIRE-1C-16 (sc-174) and PCTAIRE-1G6.1 (sc-53410) antibodies were from Santa Cruz Biotechnology. Cyclin Y antibody was from Proteintech. HA.11 (16B2) antibody was from Covance Research Products. The following antibodies were raised in sheep by the Division of Signal Transduction Therapy (DSTT, University of Dundee) against the indicated immunogens: PCTAIRE-1 (S552C, full length human 6×his-PCTAIRE-1), cyclin Y (S206D, full length human GST-cyclin Y). rCDK2–cyclin A2 was prepared by overexpression in Escherichia coli as previously described. Peptide substrates for kinase assays were synthesised by GL Biochem, and the peptide library was synthesised by Anaspec, Inc. [γ-^32P] ATP was from PerkinElmer. HRP-conjugated secondary antibodies were from Jackson Immunoresearch. Unless otherwise indicated all other reagents were from Sigma.
as §1, §2, §3

[3] abbreviates: Fig. 2A, CDK-tide derivatives, Michaelis–Menten fit, 0.1 mM [γ-32P]ATP, 30 °C, 1 U = 1 nmol phosphate min-1.
[4] abbreviates: Fig. 2A, CDK-tide derivatives, Michaelis–Menten non-linear regression, 0.1 mM [γ-32P]ATP, 30 °C, P81 paper, representative of 3 independent experiments.
[5] abbreviates: Fig. 1C, 10 ng CDK2–cyclin A2, peptide fixed at 250 μM.
[6] abbreviates: Fig. 2C, NSF-tide derivatives, Michaelis–Menten fit.
Setting [7] is: Fig. 2C, NSF-tide derivatives, Michaelis–Menten fit, 0.1 mM [γ-32P]ATP, 30 °C.

For `CC(C)C[C@H](NC(=O)[C@H](CCCCN)NC(=O)[C@H](CCCCN)NC(=O)[C@H](C)NC(=O)[C@H](CCC(=O)O)NC(=O)[C@H](CCCCN)NC(=O)[C@@H]1CCCN1C(=O)[C@@H](NC(=O)[C@H](CCCCN)NC(=O)[C@@H]1CCCN1)[C@@H](C)O)C(=O)O`, the “PCTAIRE-1 activity against substituted peptide relative to the parental CDK substrate peptide” value in assay [1] is “negligible”. In assay [1] (setting [3]), the “GST-PCTAIRE-1 Vmax” value is reported as “Neg”. For the same molecule, in assay [1] (setting [4]), the “GST-PCTAIRE-1 Km” value is on record as “Neg”. In addition, the “CDK2–cyclin A2 activity against substituted peptide relative to the parental CDK substrate peptide” value in assay [2] (setting [5]) was “negligible”. In assay [2] (10 ng CDK2–cyclin A2), the “CDK2-cyclin A2 Vmax” value is reported as “Neg” and the “CDK2-cyclin A2 Km” value was “Neg”.

For orientation: Km means the concentration of substrate that gives half-maximal velocity. As to `CC(C)C[C@H](NC(=O)[C@H](CCCCN)NC(=O)[C@H](CCCCN)NC(=O)[C@H](CCCNC(=N)N)NC(=O)[C@H](CCCCN)NC(=O)[C@H](CCCCN)NC(=O)[C@@H]1CCCN1C(=O)[C@@H](NC(=O)[C@H](CCCCN)NC(=O)[C@@H]1CCCN1)[C@@H](C)O)C(=O)O`, in assay [1], the “PCTAIRE-1 activity, fold increase relative to the parental CDK substrate peptide” value was ~ 2 fold. In assay [1] (setting [3]), the “GST-PCTAIRE-1 Vmax” value came to 160 ± 6 mU.mg^-1. Besides, the Km in assay [1] (setting [4]) is 22 µM; in assay [2] (10 ng CDK2–cyclin A2) it was 20 µM and 19 µM. In assay [2] (setting [5]), the “CDK2–cyclin A2 activity against substituted peptide relative to the parental CDK substrate peptide” value is recorded as “comparable”. Also, the “CDK2–cyclin A2 Vmax as stated in text” value in assay [2] is 1100–1500 mU mg^− 1.

Consider `CC(C)C[C@H](NC(=O)[C@H](CCCCN)NC(=O)[C@H](CCCCN)NC(=O)[C@H](C)NC(=O)[C@H](CCCCN)NC(=O)[C@H](CCCCN)NC(=O)[C@@H]1CCCN1C(=O)[C@H](CO)NC(=O)[C@H](CCCCN)NC(=O)[C@@H]1CCCN1)C(=O)O`, for which the “GST-PCTAIRE-1 Vmax” value in assay [1] (setting [3]) was 150 ± 13 mU.mg^-1. Also, the Km in assay [1] (setting [4]) was 50 µM; in assay [2] (10 ng CDK2–cyclin A2) it was 20 µM and 24 µM. In addition, the “CDK2–cyclin A2 Vmax as stated in text” value in assay [2] was 1100–1500 mU mg^− 1.

In the case of `CC(C)C[C@H](NC(=O)[C@H](CCCCN)NC(=O)[C@H](CCCCN)NC(=O)[C@H](C)NC(=O)[C@H](C)NC(=O)[C@H](CCCCN)NC(=O)[C@@H]1CCCN1C(=O)[C@H](CO)NC(=O)[C@H](CCCCN)NC(=O)[C@@H]1CCCN1)C(=O)O`, in assay [1] (setting [3]), the “GST-PCTAIRE-1 Vmax” value is recorded as 430 ± 16 mU.mg^-1. In assay [1] (setting [4]), the Km came out at 25 µM. Further, in assay [2] (10 ng CDK2–cyclin A2), the “CDK2-cyclin A2 Vmax” value was “No fit” and the “CDK2-cyclin A2 Km” value is on record as “No fit”.

`CC[C@H](C)[C@H](NC(=O)[C@H](CCSC)NC(=O)[C@H](CCCCN)NC(=O)[C@H](CCCCN)NC(=O)[C@@H]1CCCN1C(=O)[C@H](CO)NC(=O)[C@H](CS)NC(=O)[C@@H](NC(=O)[C@H](CCCCN)NC(=O)[C@@H](NC(=O)[C@@H](N)Cc1ccccc1)[C@@H](C)CC)[C@@H](C)CC)C(=O)NCC(=O)N[C@@H](CCCNC(=N)N)C(=O)N[C@@H](CCCNC(=N)N)C(=O)N[C@@H](CCCNC(=N)N)C(=O)O`: in assay [1] (setting [6]), the “GST-PCTAIRE-1 Vmax” value came out at 240 ± 9.9 mU.mg^-1. For the same molecule, the Km in assay [1] (setting [7]) came to 23 µM.

`CC[C@H](C)[C@H](NC(=O)[C@H](CCSC)NC(=O)[C@H](C)NC(=O)[C@H](CCCCN)NC(=O)[C@@H]1CCCN1C(=O)[C@H](CO)NC(=O)[C@H](CS)NC(=O)[C@@H](NC(=O)[C@H](CCCCN)NC(=O)[C@@H](NC(=O)[C@@H](N)Cc1ccccc1)[C@@H](C)CC)[C@@H](C)CC)C(=O)NCC(=O)N[C@@H](CCCNC(=N)N)C(=O)N[C@@H](CCCNC(=N)N)C(=O)N[C@@H](CCCNC(=N)N)C(=O)O`: the “GST-PCTAIRE-1 Km” value in assay [1] (setting [7]) was “No fit”. In addition, the “GST-PCTAIRE-1 Vmax” value in assay [1] (setting [6]) is recorded as “No fit”.

Turning to `CC(C)C[C@H](NC(=O)[C@H](CCCCN)NC(=O)[C@H](CCCCN)NC(=O)[C@H](C)NC(=O)[C@H](C)NC(=O)[C@H](CCCCN)NC(=O)[C@@H]1CCCN1C(=O)[C@@H](NC(=O)[C@H](CCCCN)NC(=O)[C@@H]1CCCN1)[C@@H](C)O)C(=O)O`, the “PCTAIRE-1 activity, fold increase relative to the parental CDK substrate peptide” value in assay [1] is ~ 3 fold. In addition, the “GST-PCTAIRE-1 Vmax” value in assay [1] (setting [3]) is 360 ± 23 mU.mg^-1. The Km in assay [1] (setting [4]) is 37 µM. In addition, the “CDK2–cyclin A2 activity, fold lower than on the original CDK substrate peptide” value in assay [2] (setting [5]) was ~ 7 fold. For the same molecule, in assay [2] (10 ng CDK2–cyclin A2), the “CDK2-cyclin A2 Vmax” value is on record as “Neg” and the “CDK2-cyclin A2 Km” value was “Neg”.

With `CC(C)C[C@H](NC(=O)[C@H](CCCCN)NC(=O)[C@H](CCCCN)NC(=O)[C@H](C)NC(=O)[C@H](CCCCN)NC(=O)[C@H](C)NC(=O)[C@@H]1CCCN1C(=O)[C@@H](NC(=O)[C@H](CCCCN)NC(=O)[C@@H]1CCCN1)[C@@H](C)O)C(=O)O`, the “PCTAIRE-1 activity against substituted peptide relative to the parental CDK substrate peptide” value in assay [1] was “robustly reduced”. Moreover, the “GST-PCTAIRE-1 Vmax” value in assay [1] (setting [3]) is “Neg”. For the same molecule, the “GST-PCTAIRE-1 Km” value in assay [1] (setting [4]) is “Neg”. Also, the “CDK2–cyclin A2 activity against substituted peptide relative to the parental CDK substrate peptide” value in assay [2] (setting [5]) is listed as “robustly reduced”. In addition, in assay [2] (10 ng CDK2–cyclin A2), the “CDK2-cyclin A2 Vmax” value is reported as “No fit” and the “CDK2-cyclin A2 Km” value is “No fit”.
